In PMC7819943, “Rice protein-binding microarrays: a tool to detect cis-acting elements near promoter regions in rice”:
The other results are listed elsewhere or left out.

Protein sequences, listed by entry. Tags and fused reporters are not part of them.
UniProt Q0JBA9, entry or part of it: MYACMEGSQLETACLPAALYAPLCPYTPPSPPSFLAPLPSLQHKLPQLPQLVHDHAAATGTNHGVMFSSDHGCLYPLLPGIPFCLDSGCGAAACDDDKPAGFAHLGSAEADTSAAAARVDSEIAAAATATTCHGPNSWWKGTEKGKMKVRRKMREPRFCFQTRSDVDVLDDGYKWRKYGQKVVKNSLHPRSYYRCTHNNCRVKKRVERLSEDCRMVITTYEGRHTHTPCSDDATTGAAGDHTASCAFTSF

What follows are sequences tested against OsWRKY34 (Oryza sativa, UniProt Q0JBA9 1-250) (assay: protein-binding microarray (RPBM); PBS, 2% BSA, 51.3 ng/ul salmon testes DNA, 50 uM zinc acetate, 200 nM TF, 25 C, 1 h; high values mean tight binding). Details: protein: recombinant; tags: N-terminal polyhistidine and DsRed monomer fusion (pET32a); label: CyDye5-dUTP incorporated in the synthesized complementary strand; 3' TTTTT single-stranded linker to array surface; dsDNA, one strand shown.
Procedure, shortened: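 For the binding signal, per-feature fluorescence intensity was read in arbitrary units on an Axon 4000B scanner. Before scanning, a 2% BSA-blocked custom Agilent array made double-stranded with Cy5-dUTP was washed after 1 h at 25 °C with 200 nM protein and 50 µM zinc acetate. The proteins were Ni–NTA-purified transcription factors with N-terminal polyhistidine and DsRed fusions, expressed in E. coli BL21-CodonPlus.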
For “TGTAATGTAAGCTTCATCCATAGTATCAGTATATTCTATTCGGAGTCACCTAGTGCAG”, the binding signal was 9370 fluorescence intensity (a.u.).
With “GGCGGGGCGGATCCGAGGGGCGAAGTGGGTCGGGCGGCGGCGGAGTCACCTAGTGCAG” the binding signal was 9480 fluorescence intensity (a.u.).
For “GTTCACGCCGCCGCCACCAATCCTCCCGGCGCCCCAGCCGCGGAGTCACCTAGTGCAG”, the binding signal was 8420 fluorescence intensity (a.u.).
In the case of “CTAATTTACAGCCCGGTTGTACACTGCTCCCAATATTGCTCGGAGTCACCTAGTGCAG”, the binding signal is reported as 10600 fluorescence intensity (a.u.).
With “AGTCCAAAATTTTCATTTATGTCCCGGTTTGATTTTTGGACGGAGTCACCTAGTGCAG” the binding signal was 9360 fluorescence intensity (a.u.).
For “GTCATCTTCTTTTTTTCTTTTGTGAGGTGTCCTAATAAAACGGAGTCACCTAGTGCAG”, the binding signal was 9230 fluorescence intensity (a.u.).
In the case of “GCGTTTTTGTCTCTCTGCTCTCTGCTGCTGCTGCTGGGTCCGGAGTCACCTAGTGCAG”, the binding signal is reported as 11300 fluorescence intensity (a.u.).
In the case of “CCTCTCGCCCTTGTCTCGTTTCGCGGAGGAACCGAGGAAACGGAGTCACCTAGTGCAG”, the binding signal is reported as 9880 fluorescence intensity (a.u.).
In the case of “AATCAATGTCATTTTTGGTCAAATTTTGCTTTCCATTTTTCGGAGTCACCTAGTGCAG”, the binding signal is reported as 12000 fluorescence intensity (a.u.).
In the case of “GACTTCCATTTTCTCTTATCCAGGCAAACCAAACAAGTCACGGAGTCACCTAGTGCAG”, the binding signal is reported as 8050 fluorescence intensity (a.u.).
For “CTCTGTCTATGATAATAAGGTTTTGGTTTGTTTCTAAGTTCGGAGTCACCTAGTGCAG”, the binding signal was 8420 fluorescence intensity (a.u.).
With “TATGATTTTTTTCTTCTTCTTCTTCTTCTTCTTCTTCAAACGGAGTCACCTAGTGCAG” the binding signal was 8980 fluorescence intensity (a.u.).
In the case of “TCCACCCCGGCCGCTCTCCTCTGCATCCTCTGCCGGTGTCCGGAGTCACCTAGTGCAG”, the binding signal is reported as 10300 fluorescence intensity (a.u.).
In the case of “TGGTCAATCAGGTTTGTCGTCCAGCCCGCATTTCCTTGCACGGAGTCACCTAGTGCAG”, the binding signal is reported as 9340 fluorescence intensity (a.u.).
With “CAAGCAATCCCACACTTCCTTTGCCGATCTCTTCTTTGCCCGGAGTCACCTAGTGCAG” the binding signal was 8340 fluorescence intensity (a.u.).
For “CCCTTTTTCTAAACGATTTTCGTATGATTGTTTGCTACCTCGGAGTCACCTAGTGCAG”, the binding signal was 8060 fluorescence intensity (a.u.).
For “TTTGAGGTTGATTTTGAGGTTTTTTTTTTCATCGATGCTTCGGAGTCACCTAGTGCAG”, the binding signal was 8150 fluorescence intensity (a.u.).
For “GCCGCCGCTGTCGCCATCCACGCTCCGAGCGCCACTGCCACGGAGTCACCTAGTGCAG”, the binding signal was 9610 fluorescence intensity (a.u.).
In the case of “CCGCCACGCGCCACCCATCTCTTCACCGCGTGCTGCCCTCCGGAGTCACCTAGTGCAG”, the binding signal is reported as 9610 fluorescence intensity (a.u.).
With “CACATCACTCCATGCATCTACTCTCTAGTAATTATCCATGCGGAGTCACCTAGTGCAG” the binding signal was 9610 fluorescence intensity (a.u.).
For “TCATTTCGTCTTTAAATATCTAGTCTAGATTTAATCTCAACGGAGTCACCTAGTGCAG”, the binding signal was 8150 fluorescence intensity (a.u.).
For “ATGTTGGGAGAATAAATATTGCTGGAGGGGCTGGGGTATGCGGAGTCACCTAGTGCAG”, the binding signal was 8380 fluorescence intensity (a.u.).
In the case of “TATTTGATGCCGTTGACTTTTTTAAATATGTTTGACCGTTCGGAGTCACCTAGTGCAG”, the binding signal is reported as 20900 fluorescence intensity (a.u.).
For “AAATTCCATGTCGTTGTTGTTTAACCGCCAGCAGTGGACTCGGAGTCACCTAGTGCAG”, the binding signal was 8560 fluorescence intensity (a.u.).
“CATCACTGCGTTTTTTTTCCTTGAGTGCCTTTCTTCTTAGCGGAGTCACCTAGTGCAG” was tested, and the binding signal was 10400 fluorescence intensity (a.u.).
For “CGCTATTTCGATGCCGTTGTCACAATGTCCTGGTTAGTCACGGAGTCACCTAGTGCAG”, the binding signal was 8480 fluorescence intensity (a.u.).
For “AACTACACGGCCACACCCCATCTGATACTACTCTCATCTCCGGAGTCACCTAGTGCAG”, the binding signal was 8480 fluorescence intensity (a.u.).
For “TTGACACTCCACAGATGCTCCACTCATTCACCTTTACTAACGGAGTCACCTAGTGCAG”, the binding signal was 10100 fluorescence intensity (a.u.).
For “GATCCCAATCCACCATGCTCCAAACCCTTGTTGGCGCCGCCGGAGTCACCTAGTGCAG”, the binding signal was 9240 fluorescence intensity (a.u.).
In the case of “ATATGGCTTCTTTTCTTTGCTTGTTTCGCTGCTGCAGCGACGGAGTCACCTAGTGCAG”, the binding signal is reported as 9960 fluorescence intensity (a.u.).
For “AGGTTATGCTCTTTACCCTATTTTTCTAATTCATTTTCTTCGGAGTCACCTAGTGCAG”, the binding signal was 8650 fluorescence intensity (a.u.).
With “TCACGGTGGGGTTTCCGGTATCTGTCAAGTTTTCTTGTTTCGGAGTCACCTAGTGCAG” the binding signal was 8280 fluorescence intensity (a.u.).
“ACTTCTATCTCTCTAGATGATTTGGTCACTGCATTGACCGCGGAGTCACCTAGTGCAG” was tested, and the binding signal was 9950 fluorescence intensity (a.u.).
For “CCACCCATGCGGGCCCCACCCCACAGGAACCTACCCAACCCGGAGTCACCTAGTGCAG”, the binding signal was 8390 fluorescence intensity (a.u.).
With “GCCATCACCACCACCACCACCACCTCACCGCCGCCTCGCACGGAGTCACCTAGTGCAG” the binding signal was 11800 fluorescence intensity (a.u.).
“AATCTCCACCATCGATGGTCCGTACAATATTGAACAAATGCGGAGTCACCTAGTGCAG” was tested, and the binding signal was 8800 fluorescence intensity (a.u.).
With “GGGTGTGTGGTGTATAAATCGCCAGCCTGTAGGCATGTGACGGAGTCACCTAGTGCAG” the binding signal was 9690 fluorescence intensity (a.u.).
With “TCCAACGGCATCCCGCAACCCACGTGTCCCTCACCGCGCGCGGAGTCACCTAGTGCAG” the binding signal was 9080 fluorescence intensity (a.u.).
“TGATCTAAAAATATTGTCTCTTGTCCTGTAGTTTGAATCACGGAGTCACCTAGTGCAG” was tested, and the binding signal was 8270 fluorescence intensity (a.u.).
In the case of “ATGCAATCAACAAACTGTCATCATCTCCAAATTTGCTTCACGGAGTCACCTAGTGCAG”, the binding signal is reported as 9610 fluorescence intensity (a.u.).
With “CTCGTATAGTTAGCTTGGAGGACTGAGCTTTGTGGGTGGGCGGAGTCACCTAGTGCAG” the binding signal was 8880 fluorescence intensity (a.u.).
For “TATTCAAAGGTGTCGGTTCTTGCTATTAGCGCTCCCACGGCGGAGTCACCTAGTGCAG”, the binding signal was 8210 fluorescence intensity (a.u.).
